Results deposited as PubChem BioAssay AID686943 (Drosophila RNAi Screening Center, 2013).
The screen tested about 23,000 reagents; this is an unselected part of those with a known target gene and a result. 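Extra replicates exist only for a retested subset of genes; insulin dose and duration not given; both raised and lowered dpERK matter.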 Further read-outs or replicates are left out here. Reagent sequences are not shown. The record does not give: the amount of reagent, the time to read-out.

- Purpose: 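Search across the genome for regulators of signalling from receptor tyrosine kinase to ERK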 (primary screen)
- Cells: Drosophila S2R+ haemocyte-like cells expressing YFP-tagged ERK (Rolled)
- Knock-down reagent: long dsRNA against Drosophila genes
- Treatment: insulin stimulation versus unstimulated cells; dose and duration not given
- Read-out: 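Antibody staining for doubly phosphorylated ERK divided by ERK-YFP signal, as plate z-scores, in insulin-treated and untreated cells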
- Reading the numbers: replicate 1, z-score of dpERK with insulin and replicate 2, z-score of dpERK with insulin: higher = more active ERK per ERK-YFP after insulin

no.	Target gene	amplicon	replicate 1, z-score of dpERK with insulin	replicate 2, z-score of dpERK with insulin
1	CG16984	DRSC08500	0.26	1.65
2	Syx18	DRSC14628	1.68	-0.09
3	lt	DRSC03759	-0.45	0.08
4	PolA2	DRSC16641	0.64	0.08
5	IntS4	DRSC17810	-1.14	-0.29
6	bsh	DRSC03498	-0.87	-0.5
7	SmB	DRSC03437	1.48	1.22
8	Caf1-105	DRSC06209	-0.72	-0.39
9	CG15771	DRSC18077	0.52	0.22
10	CG13287	DRSC09961	-1.26	-1.95
11	Cpr49Ad	DRSC07284	1.18	0.37
12	CG11562	DRSC00316	-0.32	-0.19
13	CG13449	DRSC09996	0.27	0.8
14	bgcn	DRSC04062	-1.24	-0.86
15	bgcn	DRSC04063	-0.19	-0.04
16	vig	DRSC03630	-0.01	0.01
17	vig	DRSC03631	-0.52	-0.08
18	vig	DRSC21672	-0.4	-0.74
19	Obp18a	DRSC19736	-0.36	-0.66
20	Stip1	DRSC00756	0.39	1.15
21	CG14490	DRSC06461	0.41	0.38
22	CG42591	DRSC08905	0.3	0.15
23	CG7126	DRSC16201	0.32	0.41
